{"sequences": {"note": "By UniProt entry, the sequences of proteins in these tests, tags left out.", "UniProt P0DMV8": "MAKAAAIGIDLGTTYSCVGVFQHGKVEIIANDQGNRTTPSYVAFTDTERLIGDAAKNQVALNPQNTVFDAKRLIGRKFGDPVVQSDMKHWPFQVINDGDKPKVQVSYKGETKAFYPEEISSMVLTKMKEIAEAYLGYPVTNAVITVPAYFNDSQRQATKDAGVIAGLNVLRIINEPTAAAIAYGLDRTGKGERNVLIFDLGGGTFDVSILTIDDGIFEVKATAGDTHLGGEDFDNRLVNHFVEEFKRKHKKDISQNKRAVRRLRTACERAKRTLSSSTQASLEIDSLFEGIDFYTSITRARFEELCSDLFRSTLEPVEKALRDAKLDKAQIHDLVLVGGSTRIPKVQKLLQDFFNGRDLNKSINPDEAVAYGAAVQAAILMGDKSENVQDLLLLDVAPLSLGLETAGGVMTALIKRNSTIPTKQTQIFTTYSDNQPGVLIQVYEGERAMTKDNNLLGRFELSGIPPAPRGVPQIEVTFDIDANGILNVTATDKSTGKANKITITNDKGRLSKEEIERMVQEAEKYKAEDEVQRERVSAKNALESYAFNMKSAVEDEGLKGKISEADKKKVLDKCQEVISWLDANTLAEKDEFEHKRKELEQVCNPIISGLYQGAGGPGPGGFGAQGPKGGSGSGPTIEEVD"}, "source": "paper PMC11926231", "molecules": {"B1": {"name": "DLAT (protein, UniProt P10515 87-647)", "chain": "SLPPHQKVPLPSLSPTMQAGTIARWEKKEGDKINEGDLIAEVETDKATVGFESLEECYMAKILVAEGTRDVPIGAIICITVGKPEDIEAFKNYTLDSSAAPTPQAAPAPTPAATASPPTPSAQAPGSSYPPHMQVLLPALSPTMTMGTVQRWEKKVGEKLSEGDLLAEIETDKATIGFEVQEEGYLAKILVPEGTRDVPLGTPLCIIVEKEADISAFADYRPTEVTDLKPQVPPPTPPPVAAVPPTPQPLAPTPSAPCPATPAGPKGRVFVSPLAKKLAVEKGIDLTQVKGTGPDGRITKKDIDSFVPSKVAPAPAAVVPPTGPGMAPVPTGVFTDIPISNIRRVIAQRLMQSKQTIPHYYLSIDVNMGEVLLVRKELNKILEGRSKISVNDFIIKASALACLKVPEANSSWMDTVIRQNHVVDVSVAVSTPAGLITPIVFNAHIKGVETIANDVVSLATKAREGKLQPHEFQGGTFTISNLGMFGIKNFSAIINPPQACILAIGASEDKLVPADNEKGFDVASMMSVTLSCDHRVVDGAVGAQWLAEFRKYLEKPITMLL"}}, "key": {"GST-PER2 (human)": {"target": "T1, GST-PER2 (human) (UniProt O15055)", "T1 sequence": "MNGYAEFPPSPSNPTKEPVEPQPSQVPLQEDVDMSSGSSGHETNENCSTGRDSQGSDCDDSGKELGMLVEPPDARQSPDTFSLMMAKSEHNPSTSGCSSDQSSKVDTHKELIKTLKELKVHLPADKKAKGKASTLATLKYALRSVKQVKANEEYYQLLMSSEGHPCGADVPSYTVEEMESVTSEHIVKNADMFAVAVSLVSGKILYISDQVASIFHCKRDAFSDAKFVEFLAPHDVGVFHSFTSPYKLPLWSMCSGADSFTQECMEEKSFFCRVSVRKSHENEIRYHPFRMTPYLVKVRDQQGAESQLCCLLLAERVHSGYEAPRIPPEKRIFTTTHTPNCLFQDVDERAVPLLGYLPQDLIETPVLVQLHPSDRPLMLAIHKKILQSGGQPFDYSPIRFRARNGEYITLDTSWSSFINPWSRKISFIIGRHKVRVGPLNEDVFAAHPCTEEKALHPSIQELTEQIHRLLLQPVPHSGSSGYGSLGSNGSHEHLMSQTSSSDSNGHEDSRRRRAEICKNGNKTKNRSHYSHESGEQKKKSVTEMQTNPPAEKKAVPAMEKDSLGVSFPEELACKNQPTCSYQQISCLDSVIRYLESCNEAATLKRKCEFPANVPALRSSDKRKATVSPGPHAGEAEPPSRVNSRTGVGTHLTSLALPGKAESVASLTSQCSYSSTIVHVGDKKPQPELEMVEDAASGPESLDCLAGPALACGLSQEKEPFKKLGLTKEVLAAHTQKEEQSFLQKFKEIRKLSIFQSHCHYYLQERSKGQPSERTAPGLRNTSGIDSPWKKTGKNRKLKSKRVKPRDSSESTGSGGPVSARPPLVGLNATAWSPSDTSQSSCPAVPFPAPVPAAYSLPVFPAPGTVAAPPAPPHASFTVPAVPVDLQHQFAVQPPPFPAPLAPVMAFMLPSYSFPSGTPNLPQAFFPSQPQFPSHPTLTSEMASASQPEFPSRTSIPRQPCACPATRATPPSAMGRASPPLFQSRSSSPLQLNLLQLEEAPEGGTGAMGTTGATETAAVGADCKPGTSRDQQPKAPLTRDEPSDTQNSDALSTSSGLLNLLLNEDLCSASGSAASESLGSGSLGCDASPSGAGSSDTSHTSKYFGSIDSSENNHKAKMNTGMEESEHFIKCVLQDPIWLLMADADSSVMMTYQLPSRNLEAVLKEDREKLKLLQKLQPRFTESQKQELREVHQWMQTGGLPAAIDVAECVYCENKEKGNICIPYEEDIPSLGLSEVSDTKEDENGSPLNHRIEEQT", "test": "pull-down; GST-PER2 or GST-HSP70 captured on glutathione agarose from bacterial lysates (1 h, 4 °C); about 100 µg fusion protein incubated with the target proteins for 4 h in vitro; eluted with glutathione, western blot (Pierce GST Protein Interaction Pull-down Kit)"}, "[1]": {"target": "T2, Period2 (PER2) in SCC25 and 293 T cells (human) (UniProt O15055)", "T2 sequence": "T1 sequence", "test": "co-IP; SCC25 and 293 T cell lysates; PER2, HSP70, AKT or IgG antibody (1 µg) overnight at 4 °C, Protein A/G magnetic beads, western blot"}, "[2]": {"target": "T3, PER2 overexpressed from the OE-PER2 lentivirus (human) (UniProt O15055)", "T3 sequence": "T1 sequence", "test": "co-IP; Vector-SCC25, OE-PER2-SCC25 and Mut-PER2^ΔCT-SCC25 cell lysates compared; antibody overnight at 4 °C, Protein A/G magnetic beads, western blot"}, "[3]": {"target": "T4, Flag-Mut-PER2^ΔPAS1 (human) (UniProt O15055)", "T4 sequence": "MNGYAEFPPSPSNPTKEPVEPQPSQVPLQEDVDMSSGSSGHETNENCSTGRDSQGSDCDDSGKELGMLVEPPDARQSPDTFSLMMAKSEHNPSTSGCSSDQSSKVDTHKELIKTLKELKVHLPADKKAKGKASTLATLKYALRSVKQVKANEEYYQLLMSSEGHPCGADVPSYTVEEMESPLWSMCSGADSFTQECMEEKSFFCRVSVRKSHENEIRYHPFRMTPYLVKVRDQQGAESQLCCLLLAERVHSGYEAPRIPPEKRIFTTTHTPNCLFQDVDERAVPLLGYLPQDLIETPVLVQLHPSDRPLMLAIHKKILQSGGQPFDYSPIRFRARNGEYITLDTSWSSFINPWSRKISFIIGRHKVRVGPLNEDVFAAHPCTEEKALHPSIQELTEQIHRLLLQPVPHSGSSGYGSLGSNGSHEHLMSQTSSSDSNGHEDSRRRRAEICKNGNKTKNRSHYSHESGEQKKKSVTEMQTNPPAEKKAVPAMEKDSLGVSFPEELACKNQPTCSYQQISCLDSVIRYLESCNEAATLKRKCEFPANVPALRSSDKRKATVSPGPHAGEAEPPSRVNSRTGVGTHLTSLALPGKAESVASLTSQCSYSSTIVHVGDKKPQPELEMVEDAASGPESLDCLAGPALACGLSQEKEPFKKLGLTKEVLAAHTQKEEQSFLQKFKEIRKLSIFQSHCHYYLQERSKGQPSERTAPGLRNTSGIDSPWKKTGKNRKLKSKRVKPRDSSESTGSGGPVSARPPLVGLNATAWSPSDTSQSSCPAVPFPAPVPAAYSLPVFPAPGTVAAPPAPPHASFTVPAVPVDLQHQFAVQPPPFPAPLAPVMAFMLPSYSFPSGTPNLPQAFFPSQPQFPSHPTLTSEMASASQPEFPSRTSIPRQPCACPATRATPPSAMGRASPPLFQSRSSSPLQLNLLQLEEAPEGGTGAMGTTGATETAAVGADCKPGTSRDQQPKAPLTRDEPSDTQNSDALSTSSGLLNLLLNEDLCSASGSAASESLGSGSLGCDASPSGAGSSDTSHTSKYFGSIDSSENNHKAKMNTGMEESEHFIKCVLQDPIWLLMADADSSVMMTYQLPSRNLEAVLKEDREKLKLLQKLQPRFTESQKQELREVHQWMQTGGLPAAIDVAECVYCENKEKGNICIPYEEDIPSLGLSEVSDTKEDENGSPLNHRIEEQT", "test": "co-IP; SCC25 cells transfected with Flag-tagged PER2 deletion mutants (ΔPAS1, ΔPAS2, ΔCT); antibody overnight at 4 °C, Protein A/G magnetic beads, western blot for HSP70 and AKT"}, "[4]": {"target": "T5, Flag-Mut-PER2^ΔPAS2 (human) (UniProt O15055)", "T5 sequence": "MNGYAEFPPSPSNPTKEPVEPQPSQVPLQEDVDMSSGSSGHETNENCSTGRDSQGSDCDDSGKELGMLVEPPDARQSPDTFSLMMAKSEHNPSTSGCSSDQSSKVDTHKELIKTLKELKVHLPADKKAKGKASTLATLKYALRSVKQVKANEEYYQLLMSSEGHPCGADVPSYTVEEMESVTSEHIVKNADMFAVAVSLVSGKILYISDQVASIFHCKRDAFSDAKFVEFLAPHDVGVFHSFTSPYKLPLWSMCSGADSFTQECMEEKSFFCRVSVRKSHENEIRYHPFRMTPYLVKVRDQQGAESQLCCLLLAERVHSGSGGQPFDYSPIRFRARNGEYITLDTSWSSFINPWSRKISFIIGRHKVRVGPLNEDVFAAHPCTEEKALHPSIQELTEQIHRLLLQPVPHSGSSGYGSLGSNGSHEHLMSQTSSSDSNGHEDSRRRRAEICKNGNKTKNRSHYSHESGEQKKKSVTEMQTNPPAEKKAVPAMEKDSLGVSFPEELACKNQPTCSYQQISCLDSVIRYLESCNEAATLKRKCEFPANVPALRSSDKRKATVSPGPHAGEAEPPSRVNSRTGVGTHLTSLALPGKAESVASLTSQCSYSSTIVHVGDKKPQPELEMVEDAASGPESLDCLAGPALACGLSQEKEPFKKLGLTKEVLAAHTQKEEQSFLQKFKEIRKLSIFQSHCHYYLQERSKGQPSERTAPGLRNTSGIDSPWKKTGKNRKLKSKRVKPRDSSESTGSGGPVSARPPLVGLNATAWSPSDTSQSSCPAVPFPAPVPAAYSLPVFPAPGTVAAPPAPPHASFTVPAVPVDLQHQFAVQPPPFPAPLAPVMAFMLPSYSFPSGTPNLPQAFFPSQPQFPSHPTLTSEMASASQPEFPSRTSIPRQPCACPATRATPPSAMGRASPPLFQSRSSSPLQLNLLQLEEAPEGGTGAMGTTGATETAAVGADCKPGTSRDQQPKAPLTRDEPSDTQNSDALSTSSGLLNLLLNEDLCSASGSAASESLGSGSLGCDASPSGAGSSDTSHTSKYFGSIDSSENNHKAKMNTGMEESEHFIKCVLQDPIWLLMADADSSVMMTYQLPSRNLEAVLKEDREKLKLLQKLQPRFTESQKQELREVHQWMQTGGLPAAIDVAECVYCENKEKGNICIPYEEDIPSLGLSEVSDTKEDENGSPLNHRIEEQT", "test": "co-IP; SCC25 cells transfected with Flag-tagged PER2 deletion mutants (ΔPAS1, ΔPAS2, ΔCT); antibody overnight at 4 °C, Protein A/G magnetic beads, western blot for HSP70 and AKT"}, "[5]": {"target": "DLAT (human (endogenous in TSCCA, SCC25 and CAL27)) (UniProt P10515)", "test": "native gel or EMSA; cell or tumour homogenates lysed in NP40 buffer; 30 µg on native-PAGE, blot with DLAT antibody; cells with PER2 or ATF3 overexpressed or silenced, SC79, TTM, ATF3 inducer 1 or ES"}}, "note": "Results are given in words; binding and its absence hold for the method and conditions named. For part of these data: Binding seen in cells or lysates may run through a third protein. Some binding calls cover weakened binding; strength is not graded here. For part of these data: Tags and fused reporters may be left off the sequences shown.", "data": [{"molecule": "HSP70, target protein of the GST pull-down (from UniProt P0DMV8 1-641)", "values": [{"measurement": "binding", "setting": "GST-PER2 (human)", "value": "binds"}]}, {"molecule": "heat shock protein 70 (HSP70) in SCC25 and 293 T cells (from UniProt P0DMV8 1-641)", "values": [{"measurement": "binding", "setting": "[1]", "value": "binds"}, {"measurement": "binding", "setting": "[2]", "value": "binds"}, {"measurement": "binding", "setting": "[3]", "value": "binds"}, {"measurement": "binding", "setting": "[4]", "value": "binds"}]}, {"molecule": "B1", "values": [{"measurement": "binding", "setting": "[5]", "value": "binds"}]}]}
